From PubChem BioAssay AID1347076 (National Center for Advancing Translational Sciences (NCATS), 2019)
The campaign covered roughly 400,000 compounds. About 13,000 (3.2%) were called active. Inconclusive results, whose numbers are uncertain, are shown with a selection of clear calls. Calls follow the shape of the dose curve; as a rule, active = well fitted cell-killing curve with a large enough effect; inconclusive = small, poorly fitted or top-dose-only effect, or effect the other way; inactive = flat fitted curve, though single readings scatter. Potencies beside an inconclusive call are fits to weak or partial responses and may not hold up.

Experiment: qHTS assay for MDR1-selective chemotherapeutics: Primary screen using the drug-selected MDR subline cells KB-V1; also: nearly all actives have a fitted effect of over 60% in size
Conditions: KB-V1 MDR cells viability, CellTiter-Glo, 72 h; activity change, negative = cytotoxicity: at 46.1 µM (top of the series)
Method in brief: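 In this primary screen, KB-V1 cells overexpressing P-gp are incubated with library compounds (lowest to highest concentration) for 72 h at 37 degrees C before a luminescent ATP viability read.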
% is scaled to controls: 0 for no effect and ±100 for the full control effect; potency is read from the fitted curve at half-maximal effect.

SMILES	Potency	activity change, negative = cytotoxicity
O=C(/C=C/NNC(=O)c1ccccc1)c1ccc([N+](=O)[O-])cc1	inconclusive: 2.91 µM [cytotoxic, full curve]	–
COc1ccc2c(CN3CCN(S(=O)(=O)c4cccs4)CC3)cc(=O)oc2c1	active: 13 µM	–
COc1ccc(NC(=O)CSc2nnc3n2CCCCC3)cc1S(=O)(=O)N1CCOCC1	inconclusive: 0.326 µM [rising, full curve]	–
CCc1ccccc1NC(=O)CSc1nc2n[nH]c(C)c2c(=N)n1-c1ccc(OC)cc1	inactive	–
COc1ccc(-c2cnn3c(N)c(S(=O)(=O)C(C)(C)C)cnc23)cc1	active: 14.6 µM	–
Cc1ccc(CNC(=O)CCC(=O)N2CC3CCCN3c3ccccc32)cc1 (configuration not stated)	inconclusive: 2.06 µM [rising, full curve, poor fit]	–
CCOc1cc(-c2c(C#N)c(N)nc3c2CCCC3)ccc1O	inconclusive: 18.4 µM [cytotoxic, partial curve, poor fit]	–
Cc1ncc(CN2CCCC(CCC(=O)NCc3ccccc3F)C2)s1 (configuration not stated)	inconclusive: 16.4 µM [cytotoxic, single point]	–
C=CCOC(=O)C1=C(C)NC(=S)C(C#N)(CC=C)C1c1ccccc1Cl (configuration not stated)	inactive	–
Cc1cc2oc(C(=O)Nc3ccc(S(=O)(=O)N(C)Cc4ccccc4)cc3)cc(=O)c2cc1C	inconclusive: 29.1 µM [rising, single point]	–
Cc1cc(=O)n(C(C)c2ccccc2)n1C(C)c1ccccc1 (configuration not stated)	inconclusive: 11.6 µM [cytotoxic, partial curve]	–
O=S(=O)(Nc1ccc(O)c(Sc2nc3ccccc3s2)c1)c1ccc(Cl)cc1	active: 16.4 µM	–
CC(=O)c1cc(F)c(N2CCN(C(=O)c3ccco3)CC2)cc1C	inconclusive: 16.4 µM [cytotoxic, single point]	–
Cc1nc(-c2ccc(S(=O)(=O)NCC3CCN(C(=O)OC(C)(C)C)CC3)s2)cs1	inactive	–
O=c1c2ccccc2c(-c2ccc(O)cc2)nn1-c1cccc(C(F)(F)F)c1	active: 13 µM	–
O=S(=O)(NC1CC1)c1ccc2c3c(cccc13)CC2	inconclusive: 20.6 µM [cytotoxic, single point]	–
Cc1cc(C)c2c(N)c(C(=O)c3ccccc3)oc2n1	inconclusive: 29.1 µM [cytotoxic, single point]	–
O=C(CN1CCCCC1)Nc1ccc(NC(=O)c2ccccc2Cl)cc1Cl	active: 4.61 µM	–
c1ccc(OCCN2CCN(C(c3ccccc3)c3ccccc3)CC2)cc1	inactive	–
COc1cccc(NC(=O)CN(C)C(=O)c2cccnc2Nc2cccc(C(F)(F)F)c2)c1	inconclusive: 18.4 µM [cytotoxic, single point]	–
Cc1cccc(C(=O)NC(=S)N2CCN(C(=S)NC(=O)c3cccc(C)c3)CC2)c1	inconclusive: 14.6 µM [cytotoxic, partial curve]	–
Cc1nc(N2CCN(Cc3ccccc3)CC2)nc2c1C(=O)CC(C)C2 (configuration not stated)	active: 20.6 µM	–
CCOC(=O)C1C(C(=O)OCC)C(C)(C)C1N(C)C (configuration not stated)	inactive	–
Cc1cc(C)c(S(=O)(=O)NCCc2cc3ccc(C)c(C)c3[nH]c2=O)c(C)c1	inconclusive: 8.2 µM [cytotoxic, partial curve]	–

SMILES	Potency	activity change, negative = cytotoxicity
CCOc1cc(C(=O)NCCC(=O)N2CCC3(CC2)NCCc2[nH]cnc23)cc(OCC)c1OCC	–	inconclusive: 33.2%
Cc1ccc(C)c(NC(=O)CN(C)C(=O)c2cc3ccccc3oc2=O)c1	inconclusive: 23.1 µM [cytotoxic, single point]	–
Cc1ccc(N2CCN(C(=O)C3CCN(S(=O)(=O)c4ccc5c(c4)oc(=O)n5C)CC3)CC2C)cc1 (configuration not stated)	inconclusive: 16.4 µM [cytotoxic, single point]	–
CCOC(=O)c1ccccc1NC(=O)c1ccccc1SC	inconclusive: 23.1 µM [cytotoxic, single point]	–
CCOc1ccccc1NC(=O)c1cnccn1	inactive	–
CCOC(=O)c1nn(-c2ccc(F)cc2)c(=O)cc1OCC(=O)Nc1ccc(F)c(F)c1	inactive	–
COc1ccc(NC(=O)c2csc3c2CCCCC3)c(OC)c1	inconclusive: 0.731 µM [rising, partial curve, poor fit]	–
NC(=S)N/N=C1\CC(n2nnn(-c3cccc(Cl)c3)c2=S)C2COC1O2 (configuration not stated)	inactive	–
CCOc1ccc(C2=CC(c3cccc(Br)c3)n3c(nc4ccccc43)N2)cc1Cl (configuration not stated)	inconclusive: 29.1 µM [cytotoxic, single point]	–
Cc1cc(NC(=O)c2cc(-c3cccc(Cl)c3)on2)n(-c2ccccc2)n1	–	inconclusive: -6.77%
O=S1(=O)CC2N=C(N(Cc3c(F)cccc3Cl)c3ccccc3F)SC2C1 (configuration not stated)	inconclusive: 8.2 µM [cytotoxic, partial curve, poor fit]	–
CCCCN(C(=O)c1ccc(-c2ccc([N+](=O)[O-])cc2)o1)c1c(N)n(CCCC)c(=O)[nH]c1=O	inactive	–
CN1CCN(C(=S)c2cn(CCOc3ccccc3F)c3ccccc23)CC1	inconclusive: 2.31 µM [cytotoxic, full curve, poor fit]	–
Cc1cccc(OCc2nc(CC(=O)Nc3ccc(C)c(C)c3)cs2)c1	inactive	–
CCOc1ccc2nc(N(CCCN(C)C)C(=O)c3ccc(S(=O)(=O)N4CCc5ccccc5C4)cc3)sc2c1	inconclusive: 29.1 µM [cytotoxic, single point]	–
CCCOc1ccc(C(O)C(CN2CCOCC2)c2ccccc2)cc1 (configuration not stated)	inconclusive: 2.59 µM [cytotoxic, full curve, poor fit]	–
O=C(COC(=O)c1cc(S(=O)(=O)N2CCCCC2)ccc1N1CCOCC1)c1ccccc1Cl	inactive	–
COC(=O)N/N=C/c1cc(Br)ccc1O	inconclusive: 20.6 µM [rising, single point]	–
O=c1cc(CN2CCN(c3ccccc3)CC2)c2cc(O)c(-c3ccccc3)cc2o1	inconclusive: 20.6 µM [cytotoxic, single point]	–
CC(=O)c1sc2c(c1OC(=O)c1ccc(Cl)cc1Cl)c(=O)n(-c1ccccc1)c(=S)n2-c1ccccc1	inconclusive: 16.4 µM [cytotoxic, partial curve, poor fit]	–
COc1ccc(N2CC(C(=O)Nc3ccc(S(=O)(=O)Nc4nccs4)cc3)CC2=O)cc1 (configuration not stated)	inactive	–
N#Cc1ccc(S(=O)(=O)N2CCC(C(=O)N3CCN(Cc4ccc5c(c4)OCO5)CC3)CC2)cc1	inconclusive: 32.6 µM [cytotoxic, single point]	–
CCC(=NNS(=O)(=O)c1ccc(C)cc1)c1ccc(OC)c(C)c1	inconclusive: 29.1 µM [cytotoxic, single point]	–
C=CCn1c(CCNC(=O)c2ccccc2F)nnc1SCC(=O)Nc1ccccc1F	inconclusive: 11.6 µM [cytotoxic, partial curve]	–

Some of the entries so far, as labelled records.
Cc1cc(NC(=O)c2cc(-c3cccc(Cl)c3)on2)n(-c2ccccc2)n1
  activity change, negative = cytotoxicity: inconclusive: -6.77%
O=S1(=O)CC2N=C(N(Cc3c(F)cccc3Cl)c3ccccc3F)SC2C1 (configuration not stated)
  Potency: inconclusive: 8.2 µM [cytotoxic, partial curve, poor fit]
CCCCN(C(=O)c1ccc(-c2ccc([N+](=O)[O-])cc2)o1)c1c(N)n(CCCC)c(=O)[nH]c1=O
  Potency: inactive
CN1CCN(C(=S)c2cn(CCOc3ccccc3F)c3ccccc23)CC1
  Potency: inconclusive: 2.31 µM [cytotoxic, full curve, poor fit]

Further results:

SMILES	Potency	activity change, negative = cytotoxicity
CCN(CC(=O)NC1CCCCCC1)S(=O)(=O)c1ccccc1	inactive	–
CC(C)COc1ccc(CC(=O)NO)cc1	inactive	–
O=[N+]([O-])c1ccc(NC(=S)N/C(=N/CS(=O)(=O)c2ccccc2)c2ccccc2)cc1	inconclusive: 20.6 µM [cytotoxic, single point]	–
COc1cccc(CN2CCN(c3nc4nonc4nc3N3CCCCC3)CC2=O)c1	inconclusive: 2.31 µM [cytotoxic, partial curve, poor fit]	–
CCc1ccccc1NC(=O)Cn1c(=O)ccc2cc(S(=O)(=O)N3CCCC3)ccc21	inactive	–
COc1ccc(S(=O)(=O)Nc2cccc(N(C)S(C)(=O)=O)c2)cc1Br	active: 14.6 µM	–
O=C1CC(c2cccc(Br)c2)c2cc3c(cc2N1)CCC3 (configuration not stated)	active: 7.31 µM	–
O=C(O)CSc1nnc(-c2cccc(S(=O)(=O)N3CCOCC3)c2)n1-c1ccc(F)cc1	inactive	–
CCOc1ccc(NC(=O)Nc2ccc(N(C)C(C)=O)cc2)cc1	inactive	–
CC(C)(C)c1ccc(OCc2ccc(C(=O)N/N=C/c3ccc([N+](=O)[O-])cc3)o2)cc1	inactive	–
COc1cc(NC(=O)CN2C(=O)c3ccccc3S2(=O)=O)cc(OC)c1	inconclusive: 32.6 µM [rising, single point]	–
CC(=O)Nc1ccc(NC(=O)COC(=O)c2c(C)nn(-c3ccccc3)c2C)cc1	inactive	–
COc1ccc(OCc2ccc(-c3nc(C#N)c(N4CCCCC4)o3)o2)cc1	inactive	–
CCCOC(=O)c1ccc(Oc2cn[nH]c2-c2ccc(OC)cc2O)cc1	inconclusive: 29.1 µM [cytotoxic, single point]	–
COc1ccc2sc(N(CCCN(C)C)C(=O)c3ccc(S(=O)(=O)N4CCCc5ccccc54)cc3)nc2c1	active: 20.6 µM	–
Cc1ccc2c(c1)nc1c3ccccc3nc(-c3ccccc3N)n21	inconclusive: 29.1 µM [cytotoxic, single point]	–
COc1ccc(-n2nc([N+](=O)[O-])c(=NCCc3ccc(OC)c(OC)c3)n2O)cc1	active: 2.59 µM	–
COc1ccc(-n2c(=O)c3sc4ccccc4c3n(Cc3ccccc3C)c2=O)cc1OC	inactive	–
Cc1ccccc1C(=O)NC(=S)Nc1ccc(Cc2ccncc2)cc1	inactive	–
OC(COCc1ccccc1)CN1CCN(Cc2ccc3c(c2)OCO3)CC1 (configuration not stated)	inactive	–
O=C(Nc1ccc(Cl)cc1)c1cc2c(cc1O)[nH]c1ccccc12	inconclusive: 18.4 µM [cytotoxic, single point]	–
CCC1CCCCN1C(=O)COc1ccc(S(=O)(=O)N2CCOCC2)cc1Cl (configuration not stated)	inactive	–
CCCCOc1ccc(Br)cc1/C(C)=N/NC1=NCCN1	active: 5.8 µM	–
O=C1c2cccc3cc(Br)cc(c23)C(=O)N1Nc1ccc(Br)cc1	inconclusive: 18.4 µM [cytotoxic, single point]	–
